In the supplement of paper PMC10849652:
Some of the results follow.

By UniProt entry, the sequences of proteins in these tests, tags left out. Where a name states a change or a piece, a line headed by the entry shows the natural chain unless it says otherwise.
UniProt Q9Y6E2: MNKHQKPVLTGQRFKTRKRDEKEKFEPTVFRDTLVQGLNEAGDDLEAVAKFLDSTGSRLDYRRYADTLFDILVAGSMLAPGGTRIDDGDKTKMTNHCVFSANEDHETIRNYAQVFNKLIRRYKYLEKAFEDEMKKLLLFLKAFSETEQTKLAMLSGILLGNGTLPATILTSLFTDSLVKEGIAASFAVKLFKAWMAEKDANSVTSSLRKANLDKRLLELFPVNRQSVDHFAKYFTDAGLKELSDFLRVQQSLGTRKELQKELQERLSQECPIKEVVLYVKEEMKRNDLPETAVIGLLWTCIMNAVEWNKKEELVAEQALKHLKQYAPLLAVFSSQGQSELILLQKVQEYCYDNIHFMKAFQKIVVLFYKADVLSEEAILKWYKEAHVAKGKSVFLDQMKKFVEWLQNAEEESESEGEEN
UniProt P04003: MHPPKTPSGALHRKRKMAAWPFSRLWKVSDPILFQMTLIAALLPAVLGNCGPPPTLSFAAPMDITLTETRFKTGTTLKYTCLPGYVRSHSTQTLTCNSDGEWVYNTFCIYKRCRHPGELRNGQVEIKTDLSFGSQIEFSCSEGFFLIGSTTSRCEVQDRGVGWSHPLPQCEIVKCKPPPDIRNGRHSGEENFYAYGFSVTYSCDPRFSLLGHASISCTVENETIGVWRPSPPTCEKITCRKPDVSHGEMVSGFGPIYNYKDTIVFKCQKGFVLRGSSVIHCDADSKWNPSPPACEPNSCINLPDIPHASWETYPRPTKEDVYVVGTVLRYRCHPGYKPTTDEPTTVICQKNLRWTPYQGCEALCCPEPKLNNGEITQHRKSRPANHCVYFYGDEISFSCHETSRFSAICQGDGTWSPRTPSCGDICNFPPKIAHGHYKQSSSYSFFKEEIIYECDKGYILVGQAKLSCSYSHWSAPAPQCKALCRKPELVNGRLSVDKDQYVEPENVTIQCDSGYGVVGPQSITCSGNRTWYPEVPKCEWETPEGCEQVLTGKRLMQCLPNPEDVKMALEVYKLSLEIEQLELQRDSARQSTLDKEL
UniProt P43251: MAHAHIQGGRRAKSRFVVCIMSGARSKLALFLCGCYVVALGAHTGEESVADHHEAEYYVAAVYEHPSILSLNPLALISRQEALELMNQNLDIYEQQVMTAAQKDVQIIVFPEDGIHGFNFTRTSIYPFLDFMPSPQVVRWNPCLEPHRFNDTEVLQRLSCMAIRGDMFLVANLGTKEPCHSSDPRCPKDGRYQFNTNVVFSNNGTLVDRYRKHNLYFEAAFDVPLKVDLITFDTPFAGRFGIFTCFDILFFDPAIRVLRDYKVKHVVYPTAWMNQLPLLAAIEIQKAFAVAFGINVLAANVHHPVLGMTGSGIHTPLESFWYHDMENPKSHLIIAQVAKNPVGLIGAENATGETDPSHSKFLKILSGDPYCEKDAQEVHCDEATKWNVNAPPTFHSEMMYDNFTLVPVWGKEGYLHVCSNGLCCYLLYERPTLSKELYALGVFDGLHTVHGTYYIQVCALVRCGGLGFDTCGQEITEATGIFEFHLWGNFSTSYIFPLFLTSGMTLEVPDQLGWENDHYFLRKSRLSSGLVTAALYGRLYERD
UniProt P27708: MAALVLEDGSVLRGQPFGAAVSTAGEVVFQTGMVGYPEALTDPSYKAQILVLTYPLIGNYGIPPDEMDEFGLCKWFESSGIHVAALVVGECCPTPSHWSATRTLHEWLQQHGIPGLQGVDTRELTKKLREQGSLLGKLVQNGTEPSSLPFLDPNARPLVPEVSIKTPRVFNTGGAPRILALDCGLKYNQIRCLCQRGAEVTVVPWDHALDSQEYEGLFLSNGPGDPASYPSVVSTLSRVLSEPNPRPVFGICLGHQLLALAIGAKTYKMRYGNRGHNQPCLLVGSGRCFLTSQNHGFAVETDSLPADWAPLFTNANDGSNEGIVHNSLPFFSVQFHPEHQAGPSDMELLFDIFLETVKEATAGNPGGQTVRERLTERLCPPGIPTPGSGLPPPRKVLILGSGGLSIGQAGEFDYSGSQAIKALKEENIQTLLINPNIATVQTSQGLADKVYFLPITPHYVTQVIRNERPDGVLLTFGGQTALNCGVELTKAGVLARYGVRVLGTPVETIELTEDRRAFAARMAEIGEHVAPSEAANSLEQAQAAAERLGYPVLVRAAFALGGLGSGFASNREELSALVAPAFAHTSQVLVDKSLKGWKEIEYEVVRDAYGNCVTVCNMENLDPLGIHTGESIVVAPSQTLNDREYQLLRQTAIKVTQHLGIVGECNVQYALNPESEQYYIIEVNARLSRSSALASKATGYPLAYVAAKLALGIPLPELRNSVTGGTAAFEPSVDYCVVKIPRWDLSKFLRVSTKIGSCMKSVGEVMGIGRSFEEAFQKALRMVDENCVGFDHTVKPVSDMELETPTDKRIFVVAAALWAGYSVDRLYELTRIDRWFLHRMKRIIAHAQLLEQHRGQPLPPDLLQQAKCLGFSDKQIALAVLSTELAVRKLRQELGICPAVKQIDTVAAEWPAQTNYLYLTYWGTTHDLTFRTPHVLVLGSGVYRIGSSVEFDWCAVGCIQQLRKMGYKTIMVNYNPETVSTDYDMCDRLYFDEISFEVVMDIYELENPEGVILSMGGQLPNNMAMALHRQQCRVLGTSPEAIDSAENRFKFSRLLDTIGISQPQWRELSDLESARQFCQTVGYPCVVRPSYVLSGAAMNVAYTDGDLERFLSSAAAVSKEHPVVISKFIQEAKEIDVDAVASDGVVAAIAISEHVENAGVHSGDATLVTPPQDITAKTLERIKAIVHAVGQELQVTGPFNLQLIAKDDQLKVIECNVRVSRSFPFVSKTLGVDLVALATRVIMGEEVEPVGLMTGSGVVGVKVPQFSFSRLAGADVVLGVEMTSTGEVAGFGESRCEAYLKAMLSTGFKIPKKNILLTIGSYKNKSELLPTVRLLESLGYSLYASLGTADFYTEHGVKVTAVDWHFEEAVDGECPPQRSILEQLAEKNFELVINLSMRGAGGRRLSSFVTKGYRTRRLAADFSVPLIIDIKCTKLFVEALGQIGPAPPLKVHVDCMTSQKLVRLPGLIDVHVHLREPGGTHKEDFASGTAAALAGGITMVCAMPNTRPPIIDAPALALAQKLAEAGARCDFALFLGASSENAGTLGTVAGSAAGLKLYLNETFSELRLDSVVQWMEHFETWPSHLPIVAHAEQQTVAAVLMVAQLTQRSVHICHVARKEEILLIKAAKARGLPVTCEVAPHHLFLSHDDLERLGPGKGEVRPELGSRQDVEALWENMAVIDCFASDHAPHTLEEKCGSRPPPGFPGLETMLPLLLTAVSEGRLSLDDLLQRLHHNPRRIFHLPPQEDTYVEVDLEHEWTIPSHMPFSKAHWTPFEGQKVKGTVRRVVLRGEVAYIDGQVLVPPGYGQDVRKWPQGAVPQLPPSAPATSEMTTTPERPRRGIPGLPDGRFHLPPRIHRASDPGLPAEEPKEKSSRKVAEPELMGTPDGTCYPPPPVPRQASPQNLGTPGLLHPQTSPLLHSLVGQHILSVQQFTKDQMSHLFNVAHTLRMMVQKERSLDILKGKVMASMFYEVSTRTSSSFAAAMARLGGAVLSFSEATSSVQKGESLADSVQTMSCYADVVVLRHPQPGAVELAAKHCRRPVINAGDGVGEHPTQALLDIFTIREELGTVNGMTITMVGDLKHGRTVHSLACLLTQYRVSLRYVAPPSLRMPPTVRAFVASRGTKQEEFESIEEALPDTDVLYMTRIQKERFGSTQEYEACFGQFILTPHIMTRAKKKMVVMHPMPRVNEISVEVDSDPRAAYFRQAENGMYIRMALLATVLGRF
UniProt Q96MD7: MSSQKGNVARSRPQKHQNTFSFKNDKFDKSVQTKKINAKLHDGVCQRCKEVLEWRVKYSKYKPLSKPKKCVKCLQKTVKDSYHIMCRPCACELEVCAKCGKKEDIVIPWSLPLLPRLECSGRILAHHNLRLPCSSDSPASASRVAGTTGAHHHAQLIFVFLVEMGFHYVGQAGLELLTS
UniProt Q7L1Q6: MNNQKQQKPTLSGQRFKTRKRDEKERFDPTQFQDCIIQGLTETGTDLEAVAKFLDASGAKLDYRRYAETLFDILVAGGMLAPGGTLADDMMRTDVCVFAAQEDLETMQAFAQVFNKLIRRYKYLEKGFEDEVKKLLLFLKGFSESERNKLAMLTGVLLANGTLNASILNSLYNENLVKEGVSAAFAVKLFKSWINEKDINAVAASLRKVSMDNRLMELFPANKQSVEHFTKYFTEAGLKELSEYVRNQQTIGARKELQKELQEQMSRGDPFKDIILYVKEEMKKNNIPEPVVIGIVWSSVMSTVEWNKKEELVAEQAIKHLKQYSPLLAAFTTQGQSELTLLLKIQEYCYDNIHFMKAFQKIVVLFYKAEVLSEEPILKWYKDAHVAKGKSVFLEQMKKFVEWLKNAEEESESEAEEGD
UniProt Q8N1Q1: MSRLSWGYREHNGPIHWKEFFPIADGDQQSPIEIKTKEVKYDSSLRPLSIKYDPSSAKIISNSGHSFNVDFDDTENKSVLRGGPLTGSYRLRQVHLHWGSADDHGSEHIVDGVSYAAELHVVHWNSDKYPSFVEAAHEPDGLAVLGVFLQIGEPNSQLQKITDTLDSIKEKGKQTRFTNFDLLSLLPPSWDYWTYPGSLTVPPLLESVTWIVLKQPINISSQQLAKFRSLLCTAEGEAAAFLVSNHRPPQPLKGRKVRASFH
UniProt O14981: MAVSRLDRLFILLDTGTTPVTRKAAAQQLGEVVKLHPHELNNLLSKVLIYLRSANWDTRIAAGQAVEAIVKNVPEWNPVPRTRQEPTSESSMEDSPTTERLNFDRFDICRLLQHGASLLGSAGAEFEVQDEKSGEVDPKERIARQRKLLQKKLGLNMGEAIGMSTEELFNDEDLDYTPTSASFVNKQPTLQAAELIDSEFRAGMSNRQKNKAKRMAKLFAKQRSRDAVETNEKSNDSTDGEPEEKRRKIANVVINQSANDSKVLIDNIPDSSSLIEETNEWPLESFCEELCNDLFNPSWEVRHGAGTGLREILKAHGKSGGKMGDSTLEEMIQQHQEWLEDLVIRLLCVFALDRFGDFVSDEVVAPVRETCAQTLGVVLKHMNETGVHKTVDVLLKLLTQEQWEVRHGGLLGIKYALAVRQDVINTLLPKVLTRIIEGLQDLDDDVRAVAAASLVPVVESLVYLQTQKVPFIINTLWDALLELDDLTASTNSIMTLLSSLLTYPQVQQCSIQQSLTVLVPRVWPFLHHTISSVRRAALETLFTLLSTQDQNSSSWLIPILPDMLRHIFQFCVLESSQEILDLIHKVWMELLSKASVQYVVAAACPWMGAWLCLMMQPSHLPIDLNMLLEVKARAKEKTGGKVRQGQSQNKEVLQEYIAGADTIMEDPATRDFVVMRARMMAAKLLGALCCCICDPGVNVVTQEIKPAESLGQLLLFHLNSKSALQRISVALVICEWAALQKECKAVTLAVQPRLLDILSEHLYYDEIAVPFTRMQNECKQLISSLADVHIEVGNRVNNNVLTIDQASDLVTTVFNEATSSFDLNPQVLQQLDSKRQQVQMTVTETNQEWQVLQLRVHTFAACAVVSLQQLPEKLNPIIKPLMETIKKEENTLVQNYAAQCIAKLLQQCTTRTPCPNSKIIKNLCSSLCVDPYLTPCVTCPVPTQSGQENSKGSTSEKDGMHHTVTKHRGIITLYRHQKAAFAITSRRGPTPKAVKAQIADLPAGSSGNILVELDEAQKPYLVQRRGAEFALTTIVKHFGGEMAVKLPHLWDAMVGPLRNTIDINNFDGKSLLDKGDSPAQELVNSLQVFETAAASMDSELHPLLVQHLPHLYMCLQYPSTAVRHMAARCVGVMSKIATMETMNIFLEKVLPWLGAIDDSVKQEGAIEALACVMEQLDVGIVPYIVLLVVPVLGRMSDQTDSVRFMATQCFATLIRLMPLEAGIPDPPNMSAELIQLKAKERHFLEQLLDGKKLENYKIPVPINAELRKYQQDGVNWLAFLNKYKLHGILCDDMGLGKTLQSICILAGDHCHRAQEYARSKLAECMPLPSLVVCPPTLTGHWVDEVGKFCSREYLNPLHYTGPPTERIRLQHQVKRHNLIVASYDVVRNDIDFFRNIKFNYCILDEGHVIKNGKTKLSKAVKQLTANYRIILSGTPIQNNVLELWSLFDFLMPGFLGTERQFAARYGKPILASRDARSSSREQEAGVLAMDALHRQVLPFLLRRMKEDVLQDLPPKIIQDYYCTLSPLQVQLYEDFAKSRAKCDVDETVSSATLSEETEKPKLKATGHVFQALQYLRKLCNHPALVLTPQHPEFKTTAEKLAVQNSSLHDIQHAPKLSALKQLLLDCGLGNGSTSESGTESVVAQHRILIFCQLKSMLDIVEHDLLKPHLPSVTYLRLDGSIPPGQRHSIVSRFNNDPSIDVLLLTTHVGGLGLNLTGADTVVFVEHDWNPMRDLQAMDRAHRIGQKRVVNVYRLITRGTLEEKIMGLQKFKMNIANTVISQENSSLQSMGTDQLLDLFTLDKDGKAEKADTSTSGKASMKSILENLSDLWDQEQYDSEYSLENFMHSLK

Key:
Assay in all cases: log2 fold change, soluble protein after heating vs DMSO (PISA); higher = thermal stabilisation; K562 cells, 10 uM, 30 min; active = over 0.2 and 3.5 SD of the protein, either way, in both replicates (recomputed)
[1] = compound: CS(=O)(=O)c1ccc(-c2cnc(N)c(C(=O)Nc3ccccc3)n2)cc1
Procedure, shortened: (§1)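 For each measurement, 10 μM compound was applied for 30 min to K562 cells at 2×10^6 cells/mL. Aliquots were heated for 3 min across 48°C-58°C, pooled, and extracted in PBS with 0.5% NP-40 at 4°C; the supernatant after 21,000xg for 90 min was soluble protein. This was quantified by TMTpro 16plex LC-MS/MS with channel sums equalised, and thermal stability was reported relative to control samples from duplicates, on a log2 fold-change scale.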

crizotinib = compound: C[C@@H](Oc1cc(-c2cnn(C3CCNCC3)c2)cnc1N)c1c(Cl)ccc(F)c1Cl [crizotinib]
Procedure, shortened: as §1

[2] = compound: C[C@@H]1COCCN1C2=NC(=NC(=C2)C3(CC3)S(=O)(=O)C)C4=C5C=CNC5=CC=C4
Procedure, shortened: as §1

[3] = compound: C[C@H](C1=CC=C(C=C1)C(=O)NC2=C3C=CNC3=NC=C2)N
Procedure, shortened: as §1

gandotinib = compound: Cc1cc(Nc2cc(CN3CCOCC3)c3nc(C)c(Cc4ccc(Cl)cc4F)n3n2)n[nH]1 [gandotinib]
Procedure, shortened: as §1

[4] = compound: Cc1cc(SCc2sc(-c3ccc(C(F)(F)F)cc3)nc2C)ccc1OCC(=O)O
Procedure, shortened: as §1

doramapimod = compound: Cc1ccc(-n2nc(C(C)(C)C)cc2NC(=O)Nc2ccc(OCCN3CCOCC3)c3ccccc23)cc1 [doramapimod]
Procedure, shortened: as §1

ispinesib = compound: Cc1ccc(C(=O)N(CCCN)[C@@H](c2nc3cc(Cl)ccc3c(=O)n2Cc2ccccc2)C(C)C)cc1 [ispinesib]
Procedure, shortened: as §1

bafetinib = compound: Cc1ccc(NC(=O)c2ccc(CN3CC[C@H](N(C)C)C3)c(C(F)(F)F)c2)cc1Nc1nccc(-c2cncnc2)n1 [bafetinib]
Procedure, shortened: as §1

[5] = compound: Cc1cccc(CC(=O)N2CCc3c2ccc(-c2cn(C)c4ncnc(N)c24)c3F)n1
Procedure, shortened: as §1

nilotinib = compound: Cc1cn(-c2cc(NC(=O)c3ccc(C)c(Nc4nccc(-c5cccnc5)n4)c3)cc(C(F)(F)F)c2)cn1 [nilotinib]
Procedure, shortened: as §1

[6] = compound: Cc1nc(Nc2n[nH]c3c2CN(C(=O)N[C@H](CN(C)C)c2ccccc2)C3(C)C)c2sccc2n1
Procedure, shortened: as §1

dasatinib = compound: Cc1nc(Nc2ncc(C(=O)Nc3c(C)cccc3Cl)s2)cc(N2CCN(CCO)CC2)n1 [dasatinib]
Procedure, shortened: as §1

[7] = compound: Cc1ncc(-c2ccnc(Nc3ccc(S(C)(=O)=O)cc3)n2)n1C(C)C
Procedure, shortened: as §1

[8] = compound: Cn1cc(-c2ccc3c(c2)CCN3C(=O)Cc2cccc(C(F)(F)F)c2)c2c(N)ncnc21
Procedure, shortened: as §1

[9] = compound: Cn1cc(-c2ccc3nnc(C(F)(F)c4ccc5ncccc5c4)n3n2)cn1
Procedure, shortened: as §1

tipifarnib = compound: Cn1cncc1[C@@](N)(c1ccc(Cl)cc1)c1ccc2c(c1)c(-c1cccc(Cl)c1)cc(=O)n2C [tipifarnib]
Procedure, shortened: as §1

mubritinib = compound: FC(F)(F)c1ccc(/C=C/c2nc(COc3ccc(CCCCn4ccnn4)cc3)co2)cc1 [mubritinib]
Procedure, shortened: as §1

duvelisib = compound: C[C@H](Nc1ncnc2nc[nH]c12)c1cc2cccc(Cl)c2c(=O)n1-c1ccccc1 [duvelisib]
Procedure, shortened: as §1

tozasertib = compound: Cc1cc(Nc2cc(N3CCN(C)CC3)nc(Sc3ccc(NC(=O)C4CC4)cc3)n2)n[nH]1 [tozasertib]
Procedure, shortened: as §1

Measured: log2 fold change

CAMSAP1 isoform 3 (UniProt Q5T5Y3)
inactive: [1] 0.05 | crizotinib -0.11 | [2] 0.073 | [3] 0.041 | gandotinib -0.039 | [4] 0.02 | doramapimod 0.008 | ispinesib -0.124 | bafetinib -0.019 | [5] -0.05 | nilotinib 0.043 | [6] -0.061 | dasatinib -0.144 | [7] -0.055 | [8] 0.091 | [9] -0.021 | tipifarnib -0.132 | mubritinib -0.005

CACTIN isoform 2 (UniProt Q8WUQ7)
inactive: [1] -0.028 | crizotinib -0.088 | [2] 0.13 | [3] -0.067 | duvelisib 0.071 | gandotinib 0.075 | tozasertib 0.001 | [4] 0.086 | doramapimod 0.04 | bafetinib -0.179 | [5] -0.026 | nilotinib -0.001 | [6] -0.271 | dasatinib 0.001 | [7] -0.004 | [8] -0.06 | tipifarnib 0.159 | mubritinib -0.022

CAMKK2 (UniProt Q96RR4)
inactive: [1] 0 | crizotinib 0.106 | [2] -0.045 | [3] -0.182 | gandotinib -0.221 | [4] 0 | doramapimod 0.086 | ispinesib -0.204 | bafetinib 0.04 | [5] -0.144 | nilotinib -0.008 | [6] 0.226 | dasatinib 0 | [7] -0.14 | [8] -0.083 | [9] 0.102 | tipifarnib -0.076 | mubritinib -0.024

C5 (UniProt P01031)
inactive: [1] -0.096 | crizotinib -0.248 | [2] 0.248 | [3] 0.444 | gandotinib 0.008 | tozasertib -0.056 | doramapimod 0.132 | [5] -0.277 | [8] 0.291

BZW2 (UniProt Q9Y6E2)
inactive: [1] 0.006 | crizotinib -0.146 | [2] 0.096 | [3] -0.037 | gandotinib -0.218 | [4] 0.047 | doramapimod -0.047 | ispinesib -0.072 | bafetinib -0.021 | [5] 0.073 | nilotinib -0.057 | [6] -0.04 | dasatinib -0.132 | [7] -0.019 | [8] 0.034 | [9] -0.004 | tipifarnib -0.158 | mubritinib 0.095

C4A (UniProt P0C0L4)
inactive: [1] -0.096 | crizotinib 0.065 | [2] 0.088 | [3] 0.056 | gandotinib -0.375 | [4] 0.008 | doramapimod -0.153 | ispinesib -0.155 | bafetinib -0.316 | [5] -0.018 | nilotinib 0.027 | [6] 0.136 | dasatinib -0.044 | [7] 0.217 | [8] 0.163 | [9] 0.052 | tipifarnib -0.087 | mubritinib -0.193

C4BPA (UniProt P04003)
inactive: [1] 0.285 | crizotinib 0.78 | [2] 0.248 | [3] 0.084 | gandotinib 0.195 | tozasertib 0.193 | doramapimod 0.023 | bafetinib 0.56 | [5] 0.035 | nilotinib 0.008 | [6] 0.145 | [7] 0 | [8] 0.192 | mubritinib 0.04

C16orf58 (UniProt Q96GQ5)
inactive: [1] 0.011 | crizotinib -0.057 | [2] 0.126 | [3] 0 | gandotinib -0.08 | [4] -0.035 | doramapimod 0.006 | bafetinib -0.112 | [5] 0.052 | nilotinib -0.036 | [6] 0.029 | dasatinib -0.046 | [7] -0.01 | [8] 0.084 | [9] 0.012 | tipifarnib 0.003 | mubritinib 0.021
active: ispinesib -0.309

BTD isoform 3 (UniProt P43251)
inactive: [1] -0.028 | crizotinib -0.013 | [2] 0.066 | [3] -0.156 | duvelisib -0.011 | tozasertib -0.033 | [4] -0.018 | doramapimod 0.105 | ispinesib 0.002 | bafetinib -0.032 | nilotinib -0.014 | [6] -0.003 | dasatinib -0.003 | [7] -0.007 | [8] 0.013 | [9] -0.013 | tipifarnib -0.027 | mubritinib 0.01

CAD (UniProt P27708)
inactive: [1] 0.014 | [2] 0 | [3] 0.033 | gandotinib -0.013 | [4] 0.053 | doramapimod -0.028 | ispinesib -0.106 | bafetinib 0.011 | [5] 0.06 | nilotinib -0.095 | [6] -0.008 | [7] 0.081 | [8] -0.012 | [9] -0.097 | tipifarnib -0.032 | mubritinib -0.006
active: crizotinib -0.271 | dasatinib -0.386

C7 (UniProt P10643)
inactive: [1] -0.181 | crizotinib 0.195 | [2] 0.17 | [3] 0.134 | duvelisib -0.101 | gandotinib -0.178 | tozasertib -0.019 | [4] -0.046 | doramapimod 0.084 | bafetinib -0.167 | [5] -0.131 | nilotinib -0.056 | [6] 0.029 | dasatinib 0.06 | [7] 0.205 | [8] 0.185 | tipifarnib 0.113

C1orf131 isoform 5 (UniProt Q8NDD1)
inactive: [1] 0.008 | crizotinib 0.025 | [2] -0.141 | [3] 0.336 | duvelisib -0.106 | gandotinib 0.154 | tozasertib -0.087 | [4] 0.059 | doramapimod 0.159 | ispinesib -0.174 | bafetinib 0.147 | [5] -0.055 | nilotinib -0.001 | [6] 0.1 | dasatinib 0.123 | [7] -0.097 | [8] -0.176 | [9] -0.115 | tipifarnib 0.203 | mubritinib -0.118

C9orf85 isoform 1 (UniProt Q96MD7)
inactive: [1] -0.039 | crizotinib -0.124 | [2] 0.046 | [3] 0.024 | duvelisib 0.087 | tozasertib -0.01 | [4] -0.052 | doramapimod 0.113 | nilotinib -0.063 | [6] -0.083 | dasatinib -0.033 | [7] 0.126 | [8] 0.05 | tipifarnib -0.036 | mubritinib -0.088

Pulled one by one from the entries so far (2):
C7 (UniProt P10643)
inactive: [1] -0.181 | crizotinib 0.195 | [2] 0.17 | [3] 0.134 | duvelisib -0.101 | gandotinib -0.178 | tozasertib -0.019 | [4] -0.046 | doramapimod 0.084 | bafetinib -0.167 | [5] -0.131 | nilotinib -0.056 | [6] 0.029 | dasatinib 0.06 | [7] 0.205 | [8] 0.185 | tipifarnib 0.113

C1orf131 isoform 5 (UniProt Q8NDD1)
inactive: [1] 0.008 | crizotinib 0.025 | [2] -0.141 | [3] 0.336 | duvelisib -0.106 | gandotinib 0.154 | tozasertib -0.087 | [4] 0.059 | doramapimod 0.159 | ispinesib -0.174 | bafetinib 0.147 | [5] -0.055 | nilotinib -0.001 | [6] 0.1 | dasatinib 0.123 | [7] -0.097 | [8] -0.176 | [9] -0.115 | tipifarnib 0.203 | mubritinib -0.118

Further results

BZW1 isoform 3 (UniProt Q7L1Q6)
inactive: [1] 0.007 | crizotinib -0.426 | [2] 0.007 | [3] 0.051 | gandotinib -0.189 | [4] 0.181 | doramapimod -0.008 | ispinesib -0.209 | bafetinib 0.002 | [5] 0.167 | nilotinib -0.124 | [6] -0.138 | dasatinib -0.283 | [7] 0.03 | [8] 0.017 | [9] 0.011 | tipifarnib -0.364 | mubritinib 0.089

CA13 (UniProt Q8N1Q1)
inactive: [1] -0.06 | crizotinib 0.05 | [2] 0.014 | [3] -0.129 | duvelisib 0.116 | gandotinib -0.035 | tozasertib 0.063 | [4] 0.007 | doramapimod -0.056 | ispinesib 0.13 | bafetinib -0.05 | [5] -0.034 | nilotinib 0.037 | [6] 0.021 | dasatinib -0.112 | [7] -0.129 | [8] -0.08 | [9] 0.051 | mubritinib 0.124

C1orf167 isoform 2 (UniProt Q5SNV9)
inactive: [1] -0.034 | crizotinib -0.029 | [2] -0.006 | [3] 0.509 | duvelisib 0.062 | [4] 0.046 | doramapimod -0.012 | bafetinib 0.265 | nilotinib -0.041 | [6] 0.051 | dasatinib -0.079 | [7] -0.002 | [8] -0.138 | tipifarnib 0.247 | mubritinib -0.202

BTAF1 (UniProt O14981)
inactive: [1] 0.055 | crizotinib -0.076 | [2] 0.094 | [3] 0.041 | gandotinib -0.05 | [4] 0.044 | doramapimod 0.006 | ispinesib 0.016 | bafetinib -0.158 | [5] 0.025 | nilotinib -0.004 | [6] -0.059 | dasatinib -0.131 | [7] 0.035 | [8] 0.04 | [9] -0.003 | tipifarnib -0.034 | mubritinib -0.022

C4orf33 (UniProt Q8N1A6)
inactive: [1] 0.025 | crizotinib -0.098 | [2] 0.001 | [3] -0.209 | gandotinib 0.019 | [4] 0.005 | doramapimod -0.003 | ispinesib -0.038 | bafetinib -0.143 | [5] 0.01 | nilotinib 0.03 | [6] -0.024 | dasatinib -0.002 | [7] -0.1 | [8] 0.056 | [9] 0.031 | tipifarnib -0.007 | mubritinib 0.054

CAB39L (UniProt Q9H9S4)
inactive: [1] 0.13 | crizotinib 0.036 | [2] -0.01 | [4] 0.053 | doramapimod 0.024 | ispinesib -0.031 | bafetinib -0.055 | [5] -0.041 | dasatinib -0.255 | [9] -0.032 | tipifarnib 0.042
active: gandotinib 0.448
